These results are taken from publication PMC10434240.

Chains of the proteins cited; added tags and fusions are not shown.
UniProt P90623: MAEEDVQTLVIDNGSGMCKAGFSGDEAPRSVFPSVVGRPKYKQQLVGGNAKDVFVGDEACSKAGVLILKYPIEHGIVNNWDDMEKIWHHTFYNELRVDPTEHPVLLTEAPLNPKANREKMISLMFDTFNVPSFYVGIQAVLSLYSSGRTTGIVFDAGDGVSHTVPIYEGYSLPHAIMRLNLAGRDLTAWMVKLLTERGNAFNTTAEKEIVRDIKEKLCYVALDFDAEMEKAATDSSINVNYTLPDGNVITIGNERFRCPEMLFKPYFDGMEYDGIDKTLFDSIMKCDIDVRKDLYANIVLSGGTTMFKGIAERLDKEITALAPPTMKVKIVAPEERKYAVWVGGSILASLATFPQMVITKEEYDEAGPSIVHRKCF

Results are given in words; binding and its absence hold for the method and conditions named. Binding seen in cells or lysates may run through a third protein. Here binding means that the protein was enriched with, or labelled near, the bait; the list need not be complete.

The target in the test is HA-TvActin (Trichomonas vaginalis) (UniProt P90623). Description: affinity purification with mass spectrometry; HA-TvActin immunoprecipitated with anti-HA agarose beads from lysate of transgenic TH17 trophozoites (1% Triton X-100, 5 mM EDTA in TBS, 4°C overnight); SDS-PAGE, LC-MS/MS, label-free emPAI.

B1: G-protein α subunit, putative (protein, UniProt A2EB65 1-363)
chain: MGCGASSAEDTTKQAEQPAQEKPKAAEPKEDGIPIKKSNAEAKEKILTLGAGECGKTTLWRQLKITYCGGFTDSERRNLINALRTAIVGDIQLLVSTAENSNQNFLTEIQSDIDCIKNLDVAQPDDFTTESAESIAKVWADPAIKNVYKASNSIGIGENADYFLDNVKRIADPSYTPTNDDILKARIRTVGISNLTFDVKGIPTNLVDVGGQRNERKNWSKCFQNVTYVMFVVSLSDFDQTLFEDESTTRTADSIELFKNIASTPIFESTPFFLVLNKFDLFQKKIKKSPEAFNSAYPGFTGDINNKDDCINHIKETFINHLPPNRSPDAWIEAIPTCAMDSQSVRNLFQRIAQKIVEKYPSA
As to B1, the binding result is recorded as “binds”.

B2: Proteasome/cyclosome repeat family protein (protein, UniProt A2EPF2 1-850)
chain: MAEDQLQQTPDEILIETLRTNVEKACNGDLQTRLAAVAVLVEELKKSTSSMTSVPKPMKHLLPYLEELTRAYNTYTNEEFRKKIADLLSLLSIINVDTKYDVLLYRLECPVENIGFWGHEYVRCLTLNLIKASKNLQDLPSGIDINPLVDQISKYYMTHNDEPDACDLLLELNRLEDIVPLVDEESHNRVCTYLLQLYDYKPEPINTNILRVLVTIYKKLNKVNQALIMALKLNDRELAVDIFRNCEDKLVQKQFAFLLARQLIVFDDLMDDELLNIAQNFDLHNLYNKVAEHLGRNKPKTPDDILQFQASIGNRNAQREDKANLGMAKCFVSAFYNAAIKKDLYFTTDTDNKIIRERNVGVGRAVAVASIAMLHLWDIMTGTNNLLYYQSDEDSSDPYVTMGALAGIGLITAAVRSDYDTARALLTPRLENKNQNENVLVGAILGLAFAYGGKADDDLLELLKPHISLDNFRVCAMACLAVGMIYVGHPSDPALVAISQILYDLNETTANAQNAPYLPFLALAIGLIFMGQQGDAIQAALEILSTINSQYAEFFKVVLESLAYAGTGNVLQIQNMLRVCTGDNSISHAAAVIGIAIIALGDPIGTQMSKRMFELILQYGKPNARKMVPIAIALTSISQPLPELVDQLHRIGHDPDVNVARAACVALGLIGAGTNNTRVINTLFALELYHKNDTSVLTLLRNSVGLTHLGQGLMTLSPTYGDGLLIHQVALASLLAVAYSCMNSEELLIKKDPLLLFFIVPAIGPRFLVTLDENLEILPLQVRVGQAVDVVGQAGKPRKITGFQTLDTPVVLEAERELSLLMIHTNFVASWKVLLFVRKRENKANEEKQQ
Regarding B2, the binding entry is “binds”.

B3: Amylomaltase (TVAG_120280) (enzyme, UniProt A2D7H3 1-930)
chain: MNFISSNGVIVHFHVRVSTTFGQEVFVSGNIPELGNWDSEKSIKMHFEQNLDYWTVDVELQKSKDPRIVEYKYIISNGDNKQWEPEQNHKLVLGEINENCIINIEDHFHWRDNVLDAFSRATFVGAINSRESPVKSEPITVKQTGDAIQTYFATNCPYVRPNQVLRIVGNVPELGNWDPKNSLVLADGCFPAWTGNKVFAKSSFPFEYKYVIENKDNSTFIWEECENRVCPVPVLSDGKVINYIQDWFVSPNKDLFKGMGIYVPLFSLRTNDSQGIGSYTDLKKCVDACNKMGASLIQLLPINDTTEKGEWCDSYPYRQVSCFALHPVYIDLLAITDKIPAAMKKEIVEAKERFEKFEQVEYPEVFAFKMKYLKEIFKLEKDNFVKDGLEQFLKKNGSWLKPYALFCLLRDEYKTTEFRKWPKYSTITPAELEQVCEQKKNDLLEIYWIQYVADKQFKESYDYATKNHVALKGDLPIGVNINSVECWAFPQLFRLHMCAGAPPDDFSSDGQNWGFPTYDWEAMEKDGFSWWRSRLTRMAELYHQLRVDHILGFFRIWEVPRETCVRGLLGHFFPSVPFSRDELNGMGLWDIERLTKPYVRWHILCEKFHEDAEFVSHKYFNNKGWDAKDDYYEFKPEFDNEKNVAQALDNDKTLSEEKREHYRCCLFQLIGNVILIEDPERKGFFHMRTEVLKDHVEPTKEGPVVYVSSSWNELDEGLKQRVKEEAHKFFYERMTDLWVQKAQPKLNVLKNATKMLICGEDLGQITAGIIRAIDESAILSLHVQRMSKIPEEDFDDFHKFGYLSVACPSTHDTSSLRGWWEETKATRENFWYNVLLRHDACPETLSCEVQEDILKQNIWSNSMWAIFLLQDITSIFPELRLQSADAERINIPADPNHKWRYRYPYKLEDLIANDKLNNHVMQLVRDSHRI
As to B3, the binding entry is listed as “binds”.

B4: IBD domain-containing protein (protein, UniProt A2EJL0 1-214)
chain: MESGDKQSQLNANELIALQTFLSDSDSAAALCTTEVVDPIGLQFIPKSTWANYKLTSVSALHDSYFSKKNSVTRRFEHKLWNCLRITQVFPSLTKIIGVCWVDNRIIKVYKHPFAKFLSIQCVDGALFHKQGNFSRHGFVDMSEQEAQQQLSPEAYADVDFRDVHLIYHQNGQFTADATEESIANCKWVDPAPATRVAALKLNNPSAEAQMTLE
Regarding B4, the binding result was “binds”.

B5: Elongation factor 1α (protein, UniProt A2DSF6 1-437)
chain: MGKEKEHINIVVIGHVDAGKSTTTGHLIYKCGGLDKRKLAAIEKEAEQLGKSSFKYAFVMDSLKAERERGITIDISLWKFEGQKFSFTIIDAPGHRDFIKNMITGTSQADAAILVIDSTLGGFEAGIAEQGQTREHALLAFTLGIKQVIVAVNKMDDKTVNYNKARFDEITAEMTRILTGIGYKPEMFRFVPISGWAGDNMTEKSPNMPWYNGPYLLEALDSLQPPKRPFDKPLRLPLQDVYKINGIGTVPVGRVESGTMKPGMIVNFAPSTVTAEVKSIEMHHESLPEALPGDNIGFNVKNVSTADVKRGYVVGDTKRDPPVECASFTAQMIISNHPGKIHAGYQPVFDCHTAHIACKFDKLIQRIDRRHGKKATENPEYIQKDDAAIVEVVPSKPLVVESFQEYPPLGRFAIRDMKQTVAVGVIRSVNKKPNPIK
With B5, the binding result is “binds”.

B6: Succinate-CoA ligase (ADP-forming) subunit β, mitochondrial (TVAG_183500) (enzyme, UniProt A2D987 1-409)
chain: MLSASSNFARNFNILEWQSKEICAKFNVAAGINVVARTPEEAAAAFKKIGLPAAVIKAQVYCGGRGKGHWKETGFKSGVHFVKSADEAAKIAKEMLGHHLVTKQTGKDGLLCQAVMLSDPVEVKRELYFAILLDRQTQSPVVIASTEGGVEIEEVAAKHPEKIHKFVLDGVQGITEEVAQTISKKLGLTGKAYENGVEEMQKLWKLFVGSDATQVEVNPLAETTDGRIITVDSKFNFDDSAHYRQKQIFGYRDLKQVNPFEIRAEKYGLNYVPLDGNVACLVNGAGLAMATMDVIKLAGGDPANFLDLGGAASEAAVTEGFTIISSQSHVKAILVNIFGGIVRCDMVAAGVIAAFKKVGLKVPLVVRLEGTNVDAGKKLLRESGLPIIPADNLTDAGIKAVKAANGEKL
For B6, the binding entry is given as “binds”.

B7: Amylomaltase (TVAG_154680) (enzyme, UniProt A2F259 1-930)
chain: MNSIAANGVTVHFHVRVSTAFGQEVLISGNIPELGNWDAEKAIKMQFEQNLDYWTANVEIPKSKEQRVVEYKYIISNGDNKQWEPEQNHKLVLGEINENVIINVEDHFHWRDNVLDAFSRATFVGAINSRESPVKSEPISVKQTGDAIQTYFTTNCPYVRPNQVLRIVGNVPELGNWDPKKSLVLADGCFPIWTGNKVFAKSSFPFEYKYVIENKDNNTFIWEDCENRICPTPVSADGKIMNYVQDWFVSPNKDLFKGMGIYVPLFSLRTNESQGIGSYTDLKKCVDACNKMGASLIQLLPINDTTEKGEWCDSYPYRQVSCFALHPVYIDLLAITSKLPAAMKKEIIEAKEKFEKFEQVEYPEVFAFKMKYLKQIFKLEKNEFAKNDLEKFLKKNGSWLKPYALFCLLRDEYKTTEFRKWPKYSTITPAELEEACEKKKNELLEIYWIQYVADKQFEESYDYATKNHVALKGDLPIGVNINSVECWAFPQLFRLHMCAGAPPDDFSSDGQNWGFPTYDWEAMEKDGFSWWRSRLTRMAELYHQLRVDHILGFFRIWEVPRETCVRGLLGHFFPSVPFSRDELNGMGLWDIDRLTKPYIRWHILCEKFQGDAEYVSHKYFNSKGWNAQDDYYEFKPEYDNEKKVLQALENDKTLSDEKREHFKYCLFQLIGNVILIEDPERKGFYHMRTEVIKDHVEATKEGPIVYVSSSWNELDEGLKQRVKEEAHKFFYERMTNLWVQKAQPKLNVLKNATKMLICGEDLGQITAGIIRAIDESAILSLHVQRMSKIPEEDFDDFHKFGYLSVACPSTHDTSSLRGWWEETKATRENFWYNILRRHDACPETLSPEVQEDILKQNIWSNSMWAIFLLQDITSIFPELRLQSAEAERINIPADPNHKWRYRYPYKLEELIANDKLNNHVMQLVRDSHRI
Consider B7, for which the binding entry is given as “binds”.

B8: Chaperonin subunit α1 CCTα, putative (protein, UniProt A2E9D9 1-543)
chain: MLPVTPGSLKIDGQRQQGENVRVQNVRAAMAVANVVRSSLGPIGLDKMLVDDIGEVTITNDGATILNHLDVQHPAGKVLIQLSELQDREVGDGTTTVVLLAAELLRLGQDLINKKVHANTIITGYRAAAKKAIAFLKKSCAVSNDNLDREILLKVAKTSMNSKILNAYSDFFGNMVVDACLAVKTPAGKCPTNRVNIVKSLGKSLPESTIVTAGVALNATRATEAFPRRLEKVKVAVLDFGLQRTRLPMGIQFRLHDASKLEAIQQEEVNAAERAVQAILKAGANVIVTSKTIDEASLKPLVKAGAIGIRHVSDAEIAHLARSTGATVVSQLISEDGGETFDPAWLGEAELIEQVPVGDNQMTIFRGCAKENSASIVLRGPNTFTLEEANRSLRDALFAVKRVIESKHIVAGGGAVEAALSVYLSQIAKDYEGKEQVAMLKFGEALLVIPKILANNAALDSIDLVAKLRAVHYDAQQKGEKCFAALDLVNGKIRDGMKDGVIEPGMSKVKSIQFATEAAITILRIDDLIKVTPEKKPDRNEEE
Consider B8, for which the binding result is “binds”.

B9: 6-Phosphofructokinase (TVAG_391760) (enzyme, UniProt A2DFT9 1-323)
chain: MKRIAVLSSGRDVSGANAAIRSIVRMGGKYGMHVFGITGGFRGLYEDYIAALTSRDVSGKIGKASSFIGTSHAFEYLEDSKIQRCLANLNKRSIEGLIVVGGGGSFAHSRVLADKGVPIIGIPASIQDDVVGTDICLGVDTAVNNIMDCIDHIRSCDSSRNRSFLVQVEGRHSGNLAARSALVTGAEICLIPEHNGRPLEEIYQKVQKSLDTGKTQCITIVSSGWKPGMKALANYIEDKDKENDLIIRQTILGYIQRGGSPSGFDRLLGTRMGAAAVEALNAGNKNHFISLQNSKLEVIPIEDTVGKYRPVDPALFEMIKSTF
Take B9: the binding result is listed as “binds”.

B10: Ribosomal protein, putative (protein, UniProt A2E4D0 1-370)
chain: MSRQTVNVLAQDGQKASTIELPKVFDTPIRAEVVKEVYVNLAKNAQQPHANDPMAGKKVSAISWGTGRAKACVPRVNGSGSNRNGQGAYANFCRGGHRFNPPTLLRRWFRPVPSRQRKFAIASAIAATAVVPLVQARGHVLGEVKEVPIVVVDAVQEIKRTRDAVELLKKVGVYGDVQRVLDGSVHRSSKGKFRRAAYKTKKGPLVIYNEDKGIVKAFRNIPGVETISVKALALAKLAPAAQVGRLTVWTESAFKALDGIYESKKRFSLPRSIMTNADIEAVITSDAVQSVLNEKKEVVPLPKCRCCKKLSVGACEDWQKALKEVAELRAAQEAKRTSPEVVKAVFAEAVAAQPATPDNMSTQIINHIPL
As to B10, the binding entry is “binds”.

B11: Thymidine kinase (enzyme, UniProt A2DM76 1-348)
chain: MQVGRIEVVVGPMFAGKTTEMLRRIDRAELGRRRCVVMKYDKDQRYSTDKVSTHDQYMHDAIPCNELMPHFNECLAYETIGIDEGQFFPDVVEFSEKLANYGKTVIVAALDGTFQRKPFGSVLELMAKCESLTKLTAVCCKTGGEAAFSKRTVNSDSIELIGGAESYTAASRSAFFGTNTSGEIHLTVGPVKSGKTTELLRVLNRYVIAGRKVVCIRPEDVVDHHNPKFEMKLVRDLPDIASLSNYDVIGIDEAQKFKNLADWADELANSGKIVMVSAVDGDEQHHAYPGIIELFPRCEKVMKLDSVCPLTGLPAPFSAVIDGIRMIPISRLGIMYQQSLGLALTAAH
Consider B11, for which the binding result is “binds”.
